Data as given in PubChem BioAssay AID1259254 (NCATS, 2017)
In all, the deposit lists about 59,000 reagents; shown is a random part of them. About 1,550 of them (2.6%) count as active. 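G2 share is only a proxy for re-replication; each gene was hit by three separate siRNAs, and active genes were retested.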 Unmarked entries are inactive. The numbers tell different reagents against one gene apart. Further read-outs or replicates are left out here. Not given: the amount of reagent.

- Screen: 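Finding genes that stop cells copying their DNA twice in one cycle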 (primary screen)
- Cell system: human HCT116 colorectal cancer cells
- Reagents: single siRNA against human genes
- Time to read-out: 3 days
- Detection: 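Nuclei stained with Hoechst and imaged; cell-cycle phase assigned by DNA content; G2 share scaled per plate, non-targeting siRNA 0%, GMNN siRNA 100%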
- Reading the numbers: G2 robust z-score: higher = more G2 cells, more excess DNA replication
- Active means: 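An siRNA counts as active if its G2 robust z-score lies at least 5 MADs above the screen median; here such calls match roughly 38% of GMNN control or more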

gene,reagent no.,G2 robust z-score
NUS1 (NUS1 dehydrodolichyl diphosphate synthase subunit),1,0.546
NUS1 (NUS1 dehydrodolichyl diphosphate synthase subunit),2,0.474
NUS1 (NUS1 dehydrodolichyl diphosphate synthase subunit),3,-0.353
UTP18 (UTP18 small subunit processome component),1,8.05 (active)
UTP18 (UTP18 small subunit processome component),2,3.59
UTP18 (UTP18 small subunit processome component),3,5.96 (active)
EML4 (EMAP like 4),1,0.0315
EML4 (EMAP like 4),2,1.67
EML4 (EMAP like 4),3,-0.701
RHOXF1 (Rhox homeobox family member 1),1,-1.01
RHOXF1 (Rhox homeobox family member 1),2,-0.0964
RHOXF1 (Rhox homeobox family member 1),3,2.01
"POLG2 (DNA polymerase gamma 2, accessory subunit)",1,-1.02
"POLG2 (DNA polymerase gamma 2, accessory subunit)",2,1.75
"POLG2 (DNA polymerase gamma 2, accessory subunit)",3,-0.381
AHNAK2 (AHNAK nucleoprotein 2),1,1.17
AHNAK2 (AHNAK nucleoprotein 2),2,0.829
AHNAK2 (AHNAK nucleoprotein 2),3,-0.512
PPIE (peptidylprolyl isomerase E),1,0.169
PPIE (peptidylprolyl isomerase E),2,-0.29
PPIE (peptidylprolyl isomerase E),3,0.0108
MYL1 (myosin light chain 1),1,-0.142
MYL1 (myosin light chain 1),2,1.59
MYL1 (myosin light chain 1),3,-0.0925
PIP5K1C (phosphatidylinositol-4-phosphate 5-kinase type 1 gamma),1,-1.35
PIP5K1C (phosphatidylinositol-4-phosphate 5-kinase type 1 gamma),2,-0.0957
PIP5K1C (phosphatidylinositol-4-phosphate 5-kinase type 1 gamma),3,-0.479
PTPRF (protein tyrosine phosphatase receptor type F),1,1.11
PTPRF (protein tyrosine phosphatase receptor type F),2,1.39
PTPRF (protein tyrosine phosphatase receptor type F),3,-1.32
CPAMD8P1 (CPAMD8 pseudogene 1),1,-0.404
CPAMD8P1 (CPAMD8 pseudogene 1),2,0.33
CPAMD8P1 (CPAMD8 pseudogene 1),3,-0.231
POLR3F (RNA polymerase III subunit F),1,0.274
POLR3F (RNA polymerase III subunit F),2,1.18
POLR3F (RNA polymerase III subunit F),3,0.99
SDHA (succinate dehydrogenase complex flavoprotein subunit A),1,-0.432
SDHA (succinate dehydrogenase complex flavoprotein subunit A),2,-0.39
SDHA (succinate dehydrogenase complex flavoprotein subunit A),3,-0.00984
GS1-24F4.2,1,-0.705
GS1-24F4.2,2,-0.602
GS1-24F4.2,3,-0.413
CCDC88A (coiled-coil and HOOK domain protein 88A),1,-0.451
CCDC88A (coiled-coil and HOOK domain protein 88A),2,-0.687
CCDC88A (coiled-coil and HOOK domain protein 88A),3,-0.145
CCDC88A (coiled-coil and HOOK domain protein 88A),4,0.58
CCDC88A (coiled-coil and HOOK domain protein 88A),5,0.523
CCDC88A (coiled-coil and HOOK domain protein 88A),6,0.584
